Results on one substance are retold here after publication PMC7822850.

By UniProt entry, the sequences of proteins in these tests, tags left out.
UniProt Q06330: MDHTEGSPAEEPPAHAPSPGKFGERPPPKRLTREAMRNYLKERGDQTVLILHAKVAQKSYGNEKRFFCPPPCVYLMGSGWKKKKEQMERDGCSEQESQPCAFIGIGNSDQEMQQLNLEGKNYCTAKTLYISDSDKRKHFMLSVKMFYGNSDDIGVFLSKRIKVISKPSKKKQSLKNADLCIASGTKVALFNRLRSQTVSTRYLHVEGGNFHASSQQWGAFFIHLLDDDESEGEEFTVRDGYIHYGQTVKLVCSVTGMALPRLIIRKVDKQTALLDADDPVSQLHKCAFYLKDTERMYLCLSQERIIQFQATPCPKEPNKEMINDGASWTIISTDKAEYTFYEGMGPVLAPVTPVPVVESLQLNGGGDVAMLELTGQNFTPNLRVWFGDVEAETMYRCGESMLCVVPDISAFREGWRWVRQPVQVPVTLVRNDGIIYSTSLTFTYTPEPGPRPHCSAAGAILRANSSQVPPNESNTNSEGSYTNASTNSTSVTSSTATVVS
UniProt Q8IZL2: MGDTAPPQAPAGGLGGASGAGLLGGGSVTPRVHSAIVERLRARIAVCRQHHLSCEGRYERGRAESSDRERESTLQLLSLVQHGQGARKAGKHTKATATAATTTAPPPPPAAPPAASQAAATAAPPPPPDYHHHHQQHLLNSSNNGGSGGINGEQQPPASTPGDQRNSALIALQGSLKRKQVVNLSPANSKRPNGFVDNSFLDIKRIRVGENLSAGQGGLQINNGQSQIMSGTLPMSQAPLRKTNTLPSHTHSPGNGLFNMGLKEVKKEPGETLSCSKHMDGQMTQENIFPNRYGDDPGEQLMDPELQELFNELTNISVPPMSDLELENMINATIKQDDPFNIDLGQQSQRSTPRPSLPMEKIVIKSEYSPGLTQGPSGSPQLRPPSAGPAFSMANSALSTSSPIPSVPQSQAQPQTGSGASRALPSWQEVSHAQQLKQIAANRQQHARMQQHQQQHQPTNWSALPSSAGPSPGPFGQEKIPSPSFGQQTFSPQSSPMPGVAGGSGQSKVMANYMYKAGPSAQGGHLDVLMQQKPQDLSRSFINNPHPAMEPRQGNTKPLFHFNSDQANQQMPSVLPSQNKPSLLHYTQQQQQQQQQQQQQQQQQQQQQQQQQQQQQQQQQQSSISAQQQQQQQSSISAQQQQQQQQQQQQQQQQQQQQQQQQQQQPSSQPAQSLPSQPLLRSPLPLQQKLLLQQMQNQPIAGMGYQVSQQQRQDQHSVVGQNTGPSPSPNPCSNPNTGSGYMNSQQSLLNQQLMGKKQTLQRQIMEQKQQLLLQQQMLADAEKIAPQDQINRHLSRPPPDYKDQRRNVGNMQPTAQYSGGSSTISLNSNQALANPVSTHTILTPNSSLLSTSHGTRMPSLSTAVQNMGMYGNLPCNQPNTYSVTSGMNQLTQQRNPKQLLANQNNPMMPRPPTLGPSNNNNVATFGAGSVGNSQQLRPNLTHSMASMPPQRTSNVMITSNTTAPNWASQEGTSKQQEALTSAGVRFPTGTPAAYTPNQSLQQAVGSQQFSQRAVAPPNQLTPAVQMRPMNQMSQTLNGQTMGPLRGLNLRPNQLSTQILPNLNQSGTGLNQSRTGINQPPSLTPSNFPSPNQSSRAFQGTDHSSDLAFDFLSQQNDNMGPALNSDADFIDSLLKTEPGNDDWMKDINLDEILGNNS

No constants are given. Whether binding was seen depends on the method and setting. In cells and extracts the contact can be indirect. Some binding calls cover weakened binding; strength is not graded here.

This test deals with RBPJ (human (endogenous in GBM cells)) (UniProt Q06330). The test can be described thus: co-IP; cell lysates in IP lysis buffer incubated with anti-RBPJ, anti-NICD, anti-MAML2 or anti-IgG (negative control) antibodies overnight at 4 °C; magnetic beads; western blot. (In general: Immunoblotting shows a protein as a band on a membrane.)

“mastermind like transcriptional coactivator 2 (MAML2) (from UniProt Q8IZL2 1-1156)”: the binding entry was “binds”.
